Source: PubChem BioAssay AID2685 (National Center for Advancing Translational Sciences (NCATS), 2010)
Some of the results follow. Further columns of the screen follow, without active or inactive calls. Compounds called inactive in the main read-out are mostly missing here. Words in brackets tell the shape of the fitted curve; partial curves, single points and poor fits give uncertain potencies.

Experiment: qHTS Assay for Lipid Storage Modulators in Drosophila S3 Cells;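 on cell number change: cells counted by Cell Tracker Red CMTPX staining in the red channel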
Details: BODIPY lipid droplet fluorescence, 18-24 h; for cell number change: measured here: cell count max response, cells fed with added oleic acid
Outline: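 Drosophila S3 cells loaded with oleic acid (400 uM, as added) and compounds at several concentrations; lipid droplets imaged by 488-nm laser-scanning cytometry, 500–530 nm intensity and object ratio to cell channel. Percent activity normalized to 20 uM Triacsin C.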

[1] = measured here: cell number channel AC50, cells fed with added oleic acid
[2] = measured here: lipid fluorescence (Fed channel) AC50, cells fed with added oleic acid

Compound `C=CCn1c(=O)c(C(=O)NC(C)c2ccccc2)c(O)c2ccccc21` (stereo unspecified) has a cell number change of -3.87%.

With `COc1ccc(OC)c(-c2nnc(-c3ccc(C)o3)o2)c1` the AC50 [1] was 6.51 µM [rising, single point] and the AC50 [2] was 0.58 µM [falling, single point].

In the case of `Cc1nc2c(c3c1[nH]c1ccccc13)C(O)CC(C)(C)C2` (stereo unspecified), the cell number change is reported as -58.5%, the AC50 [1] is reported as 18.4 µM [falling, single point] and the AC50 [2] is reported as 7.31 µM [falling, partial curve].

With `COC(=O)CSc1nnc(Cc2cc(=O)[nH]c(=O)[nH]2)n1-c1cccc(OC)c1` the cell number change was -3.58% and the AC50 [2] was 18.4 µM [falling, partial curve].

With `CC(Oc1ccc(Cl)cc1Cl)C(=O)NCCCN1CCOCC1` (stereo unspecified) the cell number change was 4.35% and the AC50 [1] was 0.092 µM [falling, full curve, poor fit].

Compound `O=S(=O)([N-]c1nc2ccccc2nc1-n1cc[n+](Cc2ccccc2)c1)c1ccc(Br)cc1` has a cell number change of 18.6%.

With `O=C(O)CSc1cc(C(=O)c2ccccc2O)cn2c(=O)c3c(-c4ccccc4)csc3nc12` the cell number change was 9.61%.

In the case of `COc1ccc(OC)c(-c2csc(NC(=O)c3ccc4c(c3)OCO4)n2)c1`, the cell number change is reported as 8.95%.

In the case of `N#Cc1ccc(/C=C2\CCn3c2nc2cc(C(=O)O)ccc2c3=O)cc1`, the cell number change is reported as 11.8% and the AC50 [2] is reported as 0.447 µM [falling, full curve, poor fit].

In the case of `CCCn1c(C)cc(C(=O)COc2ncnc3sccc23)c1C`, the AC50 [2] is reported as 8.2 µM [rising, partial curve].

With `CCc1nn2c(=O)cc(N3CCN(c4cc(C)nc5ccccc45)CC3)nc2s1` the cell number change was -6.53% and the AC50 [2] was 6.51 µM [rising, single point].

For `CCc1ccccc1Nc1ncnc2ccccc12`, the cell number change was 6.31%.

With `CC(Sc1nc2ccccc2c(=O)n1C)C(=O)NC1CCCCC1C` (stereo unspecified) the cell number change was -86.5% and the AC50 [1] was 29.1 µM [falling, single point].

With `O=C(NCc1ccco1)c1ccc(Cl)c(S(=O)(=O)N2CCCC2)c1` the cell number change was -26.3% and the AC50 [2] was 0.58 µM [falling, full curve].

In the case of `CC1Cc2ccccc2N1C(=S)NC1CCCC1` (stereo unspecified), the cell number change is reported as 13.5%.

In the case of `NC(=O)COC(=O)CC12CC3CC(CC(Br)(C3)C1)C2`, the cell number change is reported as 25.5% and the AC50 [2] is reported as 0.355 µM [rising, full curve, poor fit].

In the case of `CC(=O)Nc1ccc(S(=O)(=O)NCC2CCC(C(=O)NC3CCCCCC3)CC2)cc1` (stereo unspecified), the cell number change is reported as -28%, the AC50 [1] is reported as 1.46 µM [falling, full curve, poor fit] and the AC50 [2] is reported as 2.59 µM [falling, full curve, poor fit].

In the case of `Cc1cc(NC(=O)CSc2nc(=O)n(CCCN(C)C)c3c2CCCC3)no1`, the AC50 [2] is reported as 6.51 µM [rising, partial curve, poor fit].

With `NC(=O)c1cc(Br)cc(C2CCCCC2)c1O` the cell number change was -61.3%, the AC50 [1] was 18.4 µM [falling, partial curve] and the AC50 [2] was 20.6 µM [falling, single point].

With `Cc1cnc(CNC(=O)CC2C(=O)NCCN2Cc2ccccc2C(F)(F)F)cn1` (stereo unspecified) the cell number change was 16.1% and the AC50 [2] was 0.651 µM [rising, partial curve].

`Cc1cc(C)c(S(=O)(=O)N2CCN(C(=O)c3cc4ccccc4o3)CC2)c(C)c1` gave a cell number change of 25%.

For `COC(=O)C1C(=O)N2CCCSC2=C(C#N)C1c1cccs1` (stereo unspecified), the AC50 [2] was 0.461 µM [rising, partial curve, poor fit].

For `O=C(Cc1ccc(Cl)cc1)N/N=C/c1ccncc1`, the cell number change was -35.7%, the AC50 [1] was 29.1 µM [falling, single point] and the AC50 [2] was 29.1 µM [falling, single point].

For `O=C(Nc1ccc(Br)cc1)c1cccn1-c1ncc(C(F)(F)F)cc1Cl`, the cell number change was 12.4% and the AC50 [2] was 0.651 µM [falling, full curve].

For `Cc1ccc(N(CC(=O)NC2CCCCC2)C(=O)CNC(=O)c2ccco2)cc1C`, the cell number change was -20% and the AC50 [2] was 29.1 µM [falling, single point].

With `O=C(N1CCOCC1)N1CCN(S(=O)(=O)N2CCCCC2)CC1` the cell number change was -17.5% and the AC50 [1] was 0.00731 µM [falling, full curve, poor fit].

In the case of `CCCCc1nnc(NC(=O)C23CC4CC(CC(NC(C)=O)(C4)C2)C3)s1`, the cell number change is reported as 8.21% and the AC50 [1] is reported as 2.59 µM [rising, partial curve, poor fit].

For `COc1ccc(-c2nc(CN3CCC(C(=O)NC4CC4)CC3)c(C)o2)cc1OC`, the cell number change was 7.95% and the AC50 [2] was 3.26 µM [rising, full curve].

For `COc1ccc(C(=O)N/N=C(\C)Cn2nc([N+](=O)[O-])cc2C)cc1`, the cell number change was 21.5% and the AC50 [2] was 2.06 µM [rising, partial curve].

For `Cc1cc(C)nc(SCc2nnc(SCc3ccc([N+](=O)[O-])cc3)n2Cc2ccco2)n1`, the cell number change was 18.5%, the AC50 [1] was 1.3 µM [falling, full curve] and the AC50 [2] was 3.26 µM [rising, full curve].

For `COc1ccc(C(CC(=O)NCc2ccco2)c2ccc(F)cc2)cc1` (stereo unspecified), the cell number change was -5.22% and the AC50 [2] was 0.731 µM [rising, single point].

For `COc1ccc(/C=N/Nc2ncnc3sc4c(c23)CCCC4)cc1O`, the cell number change was -9.51%, the AC50 [1] was 6.51 µM [rising, single point] and the AC50 [2] was 7.31 µM [rising, partial curve, poor fit].

`O=C(COc1ccc(-n2cnnn2)cc1)NC1CCCCC1` showed a cell number change of 2.26%.

With `Cc1ccccc1OCCCCN1CCCCC1` the cell number change was 32.6% and the AC50 [2] was 0.58 µM [falling, single point].

In the case of `CN(C)Cc1nc2ccccc2c(=O)n1Cc1nc(-c2cccc([N+](=O)[O-])c2)cs1`, the cell number change is reported as 12.4%, the AC50 [1] is reported as 0.00461 µM [rising, full curve, poor fit] and the AC50 [2] is reported as 0.0082 µM [rising, full curve, poor fit].

For `O=C(Cn1cnc2ccccc2c1=O)Nc1cccc(-c2nnc3n2CCCCC3)c1`, the AC50 [2] was 6.51 µM [rising, partial curve, poor fit].

In the case of `CCOC(=O)c1c(C)[nH]c(C(=O)CSc2nnc(CC(C)c3ccccc3)o2)c1C` (stereo unspecified), the cell number change is reported as 0.856% and the AC50 [2] is reported as 0.0231 µM [rising, full curve].

In the case of `CCC(C)c1ccccc1N1CC(C(=O)Nc2ccc(C)c(S(=O)(=O)N3CCOCC3)c2)CC1=O` (stereo unspecified), the cell number change is reported as 9.16% and the AC50 [2] is reported as 14.6 µM [rising, single point].
